Tested on: PDLSCs
Test: Impedimetry (xCELLigence), 10 min treatment, time course and viability
Type: cell-based, human
Details: long-term
Procedure: The effect of irrigative agents on the viability of the PDLSC cells was assessed using the xCELLigence SP System (Roche Applied Science, Indianapolis, IN, USA), which monitors the cellular events by measuring electrical impedance across interdigitating gold microelectrodes integrated on the bottom of tissue culture plates (E-plates). The detected impedance is influenced by the viability and morphology of the attached cells on the surface of the electrodes. The presence of cells due to their insulating plasma membranes constrain the electrical current and lead to an increase in the electrode impedance. The impedance depends on the number of the attached cells and on the dimensional change of the attached cells on the electrodes. More cells attached to the electrode or spreading cause a larger increase in the impedance. The change in impedances represented as “cell index” (CI) which is a relative and dimensionless value. Briefly, the experimental protocol was as follows: to register the background value, 100 μL of culture medium was added to each well and impedance was recorded for 1 h to gain constant background curves of impedance. In the following step, PDLSCs were seeded in 10^5 cells/mL density. […] Normalized impedance to the control calculated by the integrated software (RTCA 1.2—Roche Applied Science, Indianapolis, IN, USA) was used for the statistical evaluation. […]

Structure (SMILES): [O][Cl+][O-] [ClO2, chlorine dioxide]
- time at which consistent increase of the CI curve was detected (0.00025% ClO2): 30 h
- time at which consistent increase of the CI curve was detected (0.0025% ClO2): 50 h
